# Data taken from the supplement of paper PMC8728848.
# This is one part of the list.
# B1: Actd5 (Actinidia), P84527 (protein)
# chain: ISSCNGPCRDLNDCDGQLICIKGKCNDDPQVGTHICRGTTHSHQPGGCKPSGTLTCRGKSYPTYDCSPPVTSSTPAKLTNNDFSEGGDDGGPSECDESYHNNNERIVALSTGWYNGGSRCGKMIRITASNGKSVSAKVVDECDSRHGCDKEHAGQPPCRNNIVDGSNAVWSALGLDKNVGVVDITWSMA
# Assays:
# Assay in all cases: glycan array binding signal (z-score within array); higher = stronger binding
# Details in all cases: glycan notation: IUPAC condensed, linker removed
# Fuc(a1-2)Gal = target: Fuc(a1-2)Gal
# Method in brief: (§1)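 The Consortium for Functional Glycomics database supplied 3228 glycan arrays, of which those lacking an available protein sequence were dropped. The binding signal, a within-array Z-score, was averaged across arrays of the same protein sequence and across linkers. Negative scores can be read as non-binding.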
# Fuc(a1-2)Gal(b1-3)GalNAc = target: Fuc(a1-2)Gal(b1-3)GalNAc
# Method in brief: as §1
# [1] = target: Fuc(a1-2)Gal(b1-3)GalNAc(a1-3)[Fuc(a1-2)]Gal(b1-4)Glc
# Method in brief: as §1
# [2] = target: Fuc(a1-2)Gal(b1-3)GalNAc(a1-3)[Fuc(a1-2)]Gal(b1-4)GlcNAc
# Method in brief: as §1
# [3] = target: Fuc(a1-2)Gal(b1-3)GalNAc(b1-3)Gal
# Method in brief: as §1
# [4] = target: Fuc(a1-2)Gal(b1-3)GalNAc(b1-3)Gal(a1-4)Gal(b1-4)Glc
# Method in brief: as §1
# [5] = target: Fuc(a1-2)Gal(b1-3)GalNAc(b1-4)[Neu5Ac(a2-3)]Gal(b1-4)Glc
# Method in brief: as §1
# Fuc(a1-2)Gal(b1-3)GlcNAc = target: Fuc(a1-2)Gal(b1-3)GlcNAc
# Method in brief: as §1
# [6] = target: Fuc(a1-2)Gal(b1-3)GlcNAc(b1-2)Man(a1-3)[Fuc(a1-2)Gal(b1-3)GlcNAc(b1-2)Man(a1-6)]Man(b1-4)GlcNAc(b1-4)GlcNAc
# Method in brief: as §1
# [7] = target: Fuc(a1-2)Gal(b1-3)GlcNAc(b1-2)Man(a1-3)[Fuc(a1-2)Gal(b1-3)GlcNAc(b1-2)Man(a1-6)]Man(b1-4)GlcNAc(b1-4)[Fuc(a1-6)]GlcNAc
# Method in brief: as §1
# [8] = target: Fuc(a1-2)Gal(b1-3)GlcNAc(b1-3)Gal(b1-4)Glc
# Method in brief: as §1
# [9] = target: Fuc(a1-2)Gal(b1-3)GlcNAc(b1-3)GalNAc
# Method in brief: as §1
# [10] = target: Fuc(a1-2)Gal(b1-3)GlcNAc(b1-3)[Fuc(a1-2)Gal(b1-3)GlcNAc(b1-6)]GalNAc
# Method in brief: as §1
# [11] = target: Fuc(a1-2)Gal(b1-3)GlcNAc(b1-3)[Gal(b1-4)GlcNAc(b1-6)]Gal(b1-4)Glc
# Method in brief: as §1
# [12] = target: Fuc(a1-2)Gal(b1-3)GlcNAc(b1-3)[Neu5Ac(a2-6)Gal(b1-4)GlcNAc(b1-6)]Gal(b1-4)Glc
# Method in brief: as §1
# [13] = target: Fuc(a1-2)Gal(b1-3)GlcNAc6S
# Method in brief: as §1
# [14] = target: Fuc(a1-2)Gal(b1-3)[Fuc(a1-4)]GlcNAc
# Method in brief: as §1
# [15] = target: Fuc(a1-2)Gal(b1-3)[Fuc(a1-4)]GlcNAc(b1-2)Man(a1-3)[Fuc(a1-2)Gal(b1-3)[Fuc(a1-4)]GlcNAc(b1-2)Man(a1-3)]Man(b1-4)GlcNAc(b1-4)GlcNAc
# Method in brief: as §1
# [16] = target: Fuc(a1-2)Gal(b1-3)[Fuc(a1-4)]GlcNAc(b1-2)Man(a1-3)[Fuc(a1-2)Gal(b1-3)[Fuc(a1-4)]GlcNAc(b1-2)Man(a1-6)]Man(b1-4)GlcNAc(b1-4)[Fuc(a1-6)]GlcNAc(b1-4)[Fuc(a1-6)]GlcNAc
# Method in brief: as §1
# [17] = target: Fuc(a1-2)Gal(b1-3)[Fuc(a1-4)]GlcNAc(b1-3)[Fuc(a1-3)[Gal(b1-4)]GlcNAc(b1-6)]Gal(b1-4)Glc
# Method in brief: as §1
# [18] = target: Fuc(a1-2)Gal(b1-3)[Fuc(a1-4)]GlcNAc(b1-3)[Gal(b1-4)GlcNAc(b1-6)]Gal(b1-4)Glc
# Method in brief: as §1
# [19] = target: Fuc(a1-2)Gal(b1-4)Fuc(a1-3)]GlcNAc(b1-2)Man(a1-3)[Fuc(a1-2)Gal(b1-4)[Fuc(a1-3)]GlcNAc(b1-2)Man(a1-6)]Man(b1-4)GlcNAc(b1-4)GlcNAc
# Method in brief: as §1
# Fuc(a1-2)Gal(b1-4)Glc = target: Fuc(a1-2)Gal(b1-4)Glc
# Method in brief: as §1
# Fuc(a1-2)Gal(b1-4)Glc6S = target: Fuc(a1-2)Gal(b1-4)Glc6S
# Method in brief: as §1
# Fuc(a1-2)Gal(b1-4)GlcNAc = target: Fuc(a1-2)Gal(b1-4)GlcNAc
# Method in brief: as §1
# [20] = target: Fuc(a1-2)Gal(b1-4)GlcNAc(b1-2)Man
# Method in brief: as §1
# [21] = target: Fuc(a1-2)Gal(b1-4)GlcNAc(b1-2)Man(a1-3)[Fuc(a1-2)Gal(b1-4)GlcNAc(b1-2)Man(a1-6)]Man(b1-4)GlcNAc(b1-4)GlcNAc
# Method in brief: as §1
# [22] = target: Fuc(a1-2)Gal(b1-4)GlcNAc(b1-2)Man(a1-3)[Fuc(a1-2)Gal(b1-4)GlcNAc(b1-2)Man(a1-6)]Man(b1-4)GlcNAc(b1-4)[Fuc(a1-6)]GlcNAc
# Method in brief: as §1
# [23] = target: Fuc(a1-2)Gal(b1-4)GlcNAc(b1-2)[Fuc(a1-2)Gal(b1-4)GlcNAc(b1-4)]Man(a1-3)[Fuc(a1-2)Gal(b1-4)GlcNAc(b1-2)Man(a1-6)]Man(b1-4)GlcNAc(b1-4)GlcNAc
# Method in brief: as §1
# [24] = target: Fuc(a1-2)Gal(b1-4)GlcNAc(b1-3)Gal(b1-4)GlcNAc
# Method in brief: as §1
# [25] = target: Fuc(a1-2)Gal(b1-4)GlcNAc(b1-3)Gal(b1-4)GlcNAc(b1-2)Man(a1-3)[Fuc(a1-2)Gal(b1-4)GlcNAc(b1-3)Gal(b1-4)GlcNAc(b1-2)Man(a1-6)]Man(b1-4)GlcNAc(b1-4)GlcNAc
# Method in brief: as §1
# [26] = target: Fuc(a1-2)Gal(b1-4)GlcNAc(b1-3)Gal(b1-4)GlcNAc(b1-3)Gal(b1-4)GlcNAc
# Method in brief: as §1
# [27] = target: Fuc(a1-2)Gal(b1-4)GlcNAc(b1-3)GalNAc
# Method in brief: as §1
# [28] = target: Fuc(a1-2)Gal(b1-4)GlcNAc(b1-3)[Fuc(a1-2)Gal(b1-4)GlcNAc(b1-6)]GalNAc
# Method in brief: as §1
# [29] = target: Fuc(a1-2)Gal(b1-4)GlcNAc(b1-3)[Fuc(a1-3)[Gal(b1-4)]GlcNAc(b1-6)]Gal(b1-4)Glc
# Method in brief: as §1
# [30] = target: Fuc(a1-2)Gal(b1-4)GlcNAc(b1-6)GalNAc
# Method in brief: as §1
# [31] = target: Fuc(a1-2)Gal(b1-4)GlcNAc6S
# Method in brief: as §1
# [32] = target: Fuc(a1-2)Gal(b1-4)[Fuc(a1-3)]GlcNAc
# Method in brief: as §1
# [33] = target: Fuc(a1-2)Gal(b1-4)[Fuc(a1-3)]GlcNAc(b1-2)Man(a1-3)[Fuc(a1-2)Gal(b1-4)[Fuc(a1-3)]GlcNAc(b1-2)Man(a1-6)]Man(b1-4)GlcNAc(b1-4)[Fuc(a1-6)]GlcNAc
# Method in brief: as §1
# [34] = target: Fuc(a1-2)Gal(b1-4)[Fuc(a1-3)]GlcNAc(b1-2)[Fuc(a1-2)Gal(b1-4)[Fuc(a1-3)]GlcNAc(b1-4)]Man(a1-3)[Fuc(a1-2)Gal(b1-4)[Fuc(a1-3)]GlcNAc(b1-2)Man(a1-6)]Man(b1-4)GlcNAc(b1-4)GlcNAc
# Method in brief: as §1
# [35] = target: Fuc(a1-2)Gal(b1-4)[Fuc(a1-3)]GlcNAc(b1-3)Gal(b1-4)[Fuc(a1-3)]GlcNAc
# Method in brief: as §1
# [36] = target: Fuc(a1-2)Gal(b1-4)[Fuc(a1-3)]GlcNAc(b1-3)Gal(b1-4)[Fuc(a1-3)]GlcNAc(b1-3)Gal(b1-4)[Fuc(a1-3)]GlcNAc
# Method in brief: as §1
# [37] = target: Fuc(a1-2)Gal(b1-4)[Fuc(a1-3)]GlcNAc(b1-3)GalNAc
# Method in brief: as §1
# [38] = target: Fuc(a1-2)Gal(b1-4)[Fuc(a1-3)]GlcNAc(b1-3)[Neu5Ac(a2-6)Gal(b1-4)GlcNAc(b1-6)]Gal(b1-4)Glc
# Method in brief: as §1
# [39] = target: Fuc(a1-2)Gal3S(b1-4)GlcNAc
# Method in brief: as §1
binder,measurement,setting,value
B1,glycan array binding signal (z-score),Fuc(a1-2)Gal,-0.037
same,glycan array binding signal (z-score),Fuc(a1-2)Gal(b1-3)GalNAc,1.06
same,glycan array binding signal (z-score),[1],-0.634
same,glycan array binding signal (z-score),[2],-0.878
same,glycan array binding signal (z-score),[3],-0.603
same,glycan array binding signal (z-score),[4],-0.001
same,glycan array binding signal (z-score),[5],-0.284
same,glycan array binding signal (z-score),Fuc(a1-2)Gal(b1-3)GlcNAc,-1.01
same,glycan array binding signal (z-score),[6],0.871
same,glycan array binding signal (z-score),[7],0.511
same,glycan array binding signal (z-score),[8],0.335
same,glycan array binding signal (z-score),[9],0.233
same,glycan array binding signal (z-score),[10],-0.331
same,glycan array binding signal (z-score),[11],-0.318
same,glycan array binding signal (z-score),[12],-0.414
same,glycan array binding signal (z-score),[13],-0.761
same,glycan array binding signal (z-score),[14],0.27
same,glycan array binding signal (z-score),[15],-0.065
same,glycan array binding signal (z-score),[16],0.593
same,glycan array binding signal (z-score),[17],-0.01
same,glycan array binding signal (z-score),[18],-0.792
same,glycan array binding signal (z-score),[19],1.8
same,glycan array binding signal (z-score),Fuc(a1-2)Gal(b1-4)Glc,-1.21
same,glycan array binding signal (z-score),Fuc(a1-2)Gal(b1-4)Glc6S,0.27
same,glycan array binding signal (z-score),Fuc(a1-2)Gal(b1-4)GlcNAc,-0.749
same,glycan array binding signal (z-score),[20],0.494
same,glycan array binding signal (z-score),[21],0.283
same,glycan array binding signal (z-score),[22],1.78
same,glycan array binding signal (z-score),[23],0.52
same,glycan array binding signal (z-score),[24],-0.259
same,glycan array binding signal (z-score),[25],1.65
same,glycan array binding signal (z-score),[26],0.175
same,glycan array binding signal (z-score),[27],-0.145
same,glycan array binding signal (z-score),[28],-0.922
same,glycan array binding signal (z-score),[29],0.273
same,glycan array binding signal (z-score),[30],-0.774
same,glycan array binding signal (z-score),[31],-0.666
same,glycan array binding signal (z-score),[32],-0.268
same,glycan array binding signal (z-score),[33],1.25
same,glycan array binding signal (z-score),[34],2.12
same,glycan array binding signal (z-score),[35],-0.124
same,glycan array binding signal (z-score),[36],0.593
same,glycan array binding signal (z-score),[37],0.867
same,glycan array binding signal (z-score),[38],-0.626
same,glycan array binding signal (z-score),[39],-0.723

# A different layout for part of the listing above:
binder | measurement | setting | value
B1 | glycan array binding signal (z-score) | [7] | 0.511
same | glycan array binding signal (z-score) | [8] | 0.335
same | glycan array binding signal (z-score) | [9] | 0.233
